Data on two molecules can be found in article doi:10.1101/2024.08.29.607757 (bioRxiv, 2024).

Protein sequences, listed by entry. Tags and fused reporters are not part of them. Residues count along the entry.
UniProt P38023, 319-399: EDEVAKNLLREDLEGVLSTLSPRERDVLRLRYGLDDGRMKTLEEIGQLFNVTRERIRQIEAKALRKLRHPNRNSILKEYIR

These are yes or no findings as the source states them, for the method shown.

Holding throughout (experiment): two-hybrid
For assay [1], the target named is T18-σ^319-399 (UniProt P38023).
Assay [2] deals with σ^319-399-T18 (UniProt P38023).
The target in assay [3] is σ^319-399-T25 (UniProt P38023).
The target in assay [4] is T25-σ^319-399 (UniProt P38023).

B1: T25-NtcA (protein, UniProt P29283 1-222)
chain: MLANENSLLTMFRELGSGKLPLQIEQFERGKTIFFPGDPAERVYLLVKGAVKLSRVYESGEEITVALLRENSVFGVLSLLTGQRSDRFYHAVAFTPVQLFSVPIEFMQKALIERPELANVMLQGLSSRILQTEMMIETLAHRDMGSRLVSFLLILCRDFGIPSPDGITIDLKLSHQAIAEAIGSTRVTVTRLLGDLRESKLIAIHKKRITVFNPVALSQQFS
On to B1, for which the binding result in assay [1] and in assay [2] was “no binding” each time.

B2: T18-NtcA (protein, UniProt P29283 1-222)
chain: B1 chain
In the case of B2, the binding entry in assay [3] and in assay [4] was “no binding” each time.
